Data source: PubChem BioAssay AID1671195 (Yale University, 2021)

Test: 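Regulators of LDL receptor activity judged by labelled LDL uptake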 (primary screen)
System: human Huh7 hepatoma cells
Knock-down reagent: siRNA pool against human genes, 18 nM
Duration: about 2 to 2.5 days of knockdown, then 8 h LDL uptake
Conditions: DiI-labelled LDL at 30 µg/ml for 8 h, in lipoprotein-deficient serum medium
Read-out: 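Fluorescent LDL signal imaged in cells, scaled to the plate median, robust z-score for each replicate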
Scale: robust z-score: higher = more LDL uptake after knockdown
Rule for the call: 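a gene counts as active if at least two replicate z-scores exceed ±2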
The deposit covers about 22,000 reagents; below is a part drawn at random. About 1,510 of all reagents (6.9%) were called active. 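Active includes knockdowns raising or lowering LDL uptake; positive z-scores mean more uptake, negative mean less.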

no.	gene	robust z-score, replicate 1	robust z-score, replicate 2	robust z-score, replicate 3	Outcome
1	SH3RF2 (SH3 domain containing ring finger 2)	-0.237	0.486	-0.531	inactive
2	FNDC3A (fibronectin type III domain containing 3A)	-0.368	-0.564	-0.391	inactive
3	CSNK2B (casein kinase 2 beta)	-0.883	0.0165	-0.619	inactive
4	LOC730007	0.116	0.647	0.516	inactive
5	TROAP (trophinin associated protein)	0.178	-1.44	-0.922	inactive
6	DNASE2 (deoxyribonuclease 2, lysosomal)	0.67	0.713	0.484	inactive
7	DLL1 (delta like canonical Notch ligand 1)	0.5	0.578	1.15	inactive
8	RPS13 (ribosomal protein S13)	-1.1	-2.28	-0.171	inactive
9	ZC3H12B (zinc finger CCCH-type containing 12B)	0.72	0.266	0.238	inactive
10	LOC388620 (retired record)	-0.0881	0.024	0.318	inactive
11	MRPL51 (mitochondrial ribosomal protein L51)	1.8	1.54	1.5	inactive
12	EMC9 (ER membrane protein complex subunit 9)	1.02	1.36	-0.563	inactive
13	PGLS (6-phosphogluconolactonase)	1.08	1.36	1.53	inactive
14	NKAIN3 (sodium/potassium transporting ATPase interacting 3)	2.04	1.64	1.78	inactive
15	TUBAL3 (tubulin alpha like 3)	1.37	0.469	1.41	inactive
16	LINC01142 (long independently transcribed non-coding RNA 1142)	-2.45	-2.29	-2.34	active
17	LOC440052 (retired record)	0.0266	0.0431	0.135	inactive
18	RAB6A (RAB6A, member RAS oncogene family)	1.24	2.75	1.42	inactive
19	MACIR (macrophage immunometabolism regulator)	0.268	0.79	0.276	inactive
20	ZC3HAV1L (ZC3HAV1 like)	-0.419	0.0551	0.323	inactive
21	PUS3 (pseudouridine synthase 3)	0.127	0.211	-0.386	inactive
22	ATCAY (ATCAY kinesin light chain interacting caytaxin)	0.996	2.73	0.792	inactive
23	SAMD14 (sterile alpha motif domain containing 14)	-0.108	-0.223	1.21	inactive
24	LOC286408 (retired record)	-0.819	-0.819	-0.71	inactive
25	HDDC3 (HD domain containing 3)	0.945	-0.0779	-0.196	inactive
26	SLC32A1	0.858	0.0717	1.2	inactive
27	OR2AG2 (olfactory receptor family 2 subfamily AG member 2)	-0.2	0.389	0.0694	inactive
28	LOC400571 (retired record)	0.0863	0.188	0.691	inactive

A stretch from the list above, as a working copy:
no.	gene	robust z-score, replicate 1	robust z-score, replicate 2	robust z-score, replicate 3	Outcome
22	ATCAY (ATCAY kinesin light chain interacting caytaxin)	0.996	2.73	0.792	inactive
23	SAMD14 (sterile alpha motif domain containing 14)	-0.108	-0.223	1.21	inactive
